# In PubChem BioAssay AID1347076 (National Center for Advancing Translational Sciences (NCATS), 2019):
# The campaign covered roughly 400,000 compounds. About 13,000 (3.2%) were called active. The inconclusive results got no clear call from the source; some entries with a clear call stand among them for comparison. Calls follow the shape of the dose curve; as a rule, active = well fitted cell-killing curve with a large enough effect; inconclusive = small, poorly fitted or top-dose-only effect, or effect the other way; inactive = flat fitted curve, though single readings scatter. Where the call is inconclusive, the potency comes from a doubtful curve fit.
# Test: qHTS assay for MDR1-selective chemotherapeutics: Primary screen using the drug-selected MDR subline cells KB-V1; also: nearly all actives have a fitted effect of over 60% in size
# Settings: KB-V1 MDR cells viability, CellTiter-Glo, 72 h; activity change, negative = cytotoxicity: at 46.1 µM (top of the series)
# Outline: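 Potencies derive from concentration-effect curves fitted to normalized luminescence (CellTiter-Glo) of KB-V1 cells treated for 72 h at 37 degrees C in phenol-red-free DMEM containing 10% FBS.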
# % is scaled to controls: 0 for no effect and ±100 for the full control effect; potency is read from the fitted curve at half-maximal effect.
SMILES,"activity change, negative = cytotoxicity",Potency
CCCC1=Nc2cc(C(=O)NCCCN(CC)CC)ccc2Sc2ccccc21,inactive: -12.1%,
Cc1nn(Cc2ccccc2)c(C)c1C(=O)NCc1ccccc1F,,"inconclusive: 9.2 µM [cytotoxic, partial curve]"
Cc1cc(OCC(=O)NC2CCS(=O)(=O)C2)c2c3c(c(=O)oc2c1)CCC3 (centres undefined),,"inconclusive: 29.1 µM [cytotoxic, single point]"
COc1ccc(C(Nc2ccccc2)P(=O)(Oc2ccccc2)Oc2ccccc2)cc1 (centres undefined),,"inconclusive: 16.4 µM [cytotoxic, partial curve, poor fit]"
CC(C)(C)n1nnnc1C(c1ccnc2ccccc12)N1CCC2(CC1)C(=O)NCN2c1ccccc1 (centres undefined),inactive: 2.65%,
COc1ccc(Cn2c(N)c(C(=O)NCc3ccco3)c3nc4ccccc4nc32)cc1OC,,active: 20.6 µM
COc1ccc(-n2c(Cc3cccc([N+](=O)[O-])c3)nc3ccccc3c2=O)cc1,inactive: 8.92%,
O=C1NC(=O)N(Cc2ccc(F)cc2)C(=O)/C1=C\c1ccc([N+](=O)[O-])s1,inactive: 16.5%,
CCn1c(=N)n(Cc2ccccc2F)c2ccccc21,inactive: -28.2%,
CN(C)C(=O)Oc1ccc(Br)cc1C(=O)Nc1ccc(F)c(Cl)c1,inactive: -2.94%,
O=[N+]([O-])c1ccc(N(CCO)CCO)c2c1no[n+]2[O-],,active: 20.6 µM
C=C1N2CCC(CC2)C1(O)c1ccccc1C (centres undefined),,"inconclusive: 29.1 µM [rising, single point]"
O=C1CN=C(c2ccccc2)c2ccccc2N1Cc1ccc(C(F)(F)F)cc1,inactive: 0%,
COc1ccc(-n2nnnc2C(CCc2ccccc2)N2CCC3(CC2)C(=O)NCN3c2ccccc2)cc1 (centres undefined),,"inconclusive: 20.6 µM [cytotoxic, single point]"
CCCCCCCn1c(=O)c(C(=O)Nc2cnccn2)c(O)c2ccccc21,,active: 2.59 µM
Cc1nc(-c2cccc(CN(C)C(=O)Oc3ccc([N+](=O)[O-])cc3)c2)no1,inactive: -2.54%,
CN(C)CC1CSCCC1(O)c1ccccc1Cl (centres undefined),inactive: -1.25%,
CCCCCN1C(=O)c2cc(OC)ccc2[C@@]2(C(=O)OCC)Cc3cc(OC)ccc3[C@@H]12,,active: 23.1 µM
C(#CCN1CCOCC1)COC/C=C/c1ccccc1,,active: 20.6 µM
CCC1(C)OC(c2ccccc2)=C/C(=C/C=C2C(=O)NC(=O)NC2=O)O1 (centres undefined),inactive: 1.96%,
C1=NCCc2c1[nH]c1ccccc21,,active: 16.4 µM
Cc1ccc(Cn2cccc(C(=O)Nc3ccc4c(c3)OCCO4)c2=O)cc1,,"inconclusive: 29.1 µM [cytotoxic, single point]"
CN1/C(=C\C=C2C(=O)NC(=S)NC2=O)C(C)(C)c2ccccc21,,"inconclusive: 4.61 µM [cytotoxic, full curve]"
Cc1cccc(C)c1-n1nnnc1C(c1cccc2ccccc12)N1CCC(n2c(=O)[nH]c3ccccc32)CC1 (centres undefined),,"inconclusive: 18.4 µM [cytotoxic, single point]"
Fc1ccc(CNCCc2ccccc2)cc1,inactive: 15.1%,

SMILES,"activity change, negative = cytotoxicity",Potency
O=C1c2ccccc2-n2nncc2C2c3cc(Br)ccc3CCN12 (centres undefined),,"inconclusive: 29.1 µM [cytotoxic, single point]"
CCCc1nc2ccc(Br)cc2c(=O)n1-c1ccc([N+](=O)[O-])c(C(F)(F)F)c1,,active: 16.4 µM
CCOC(=O)c1c(C)[nH]c(C(=O)C(C)N2CCCC2)c1C (centres undefined),,"inconclusive: 23.1 µM [cytotoxic, partial curve, poor fit]"
COc1ccc(Cc2nccc3cc(OC)c(OC)cc23)cc1OC,,"inconclusive: 5.17 µM [cytotoxic, full curve]"
C=Cn1c(P(=S)(N2CCOCC2)N2CCOCC2)cc2c1CCCC2,,"inconclusive: 18.4 µM [cytotoxic, partial curve]"
O=C(O)[C@H]1C[C@@H]1[C@H](NP(=O)(c1ccccc1)c1ccccc1)c1ccccc1,inactive: 2.55%,
CC1OC(OC2C(O)CC(OC3C(O)CC(OC4CCC5(C)C(CCC6C5CCC5(C)C(C7=CC(=O)OC7)C(O)CC65O)C4)OC3C)OC2C)CC(O)C1O (centres undefined),,"inconclusive: 0.411 µM [cytotoxic, full curve, poor fit]"
O=C(Nc1ccncc1)c1cccn(Cc2ccccc2)c1=O,,active: 5.8 µM
CC(=O)O[C@@]12CO[C@@H]1C[C@H](O)[C@@]1(C)C(=O)[C@H](O)C3=C(C)[C@@H](O)C[C@@](O)([C@@H](OC(=O)c4ccccc4)C12)C3(C)C (some centres undefined),inactive: -4.76%,
CC1CCC[C@H](O)CCCCCc2cc(O)cc(O)c2C(=O)O1 (some centres undefined),,active: 20.6 µM
O=[N+]([O-])c1ccc(N2CC2)c([N+](=O)[O-])c1,,"inconclusive: 29.1 µM [rising, single point]"
C[C@]12CCC(=O)C=C1CCC1C2CC[C@@]2(C)C1CC[C@@H]2O (some centres undefined),,active: 2.31 µM
CCN1/C(=C\C=C\C2=[N+](CC)c3ccccc3C2(C)C)C(C)(C)c2ccccc21,,active: 20.6 µM
O=c1c2ccccc2nc(N2CCCC2)n1-c1ccc(Cl)cc1,,active: 23.1 µM
Oc1c(Cl)cccc1Cc1cc(Cl)cc(Cl)c1O,,"inconclusive: 20.6 µM [cytotoxic, single point]"
CCOP(=S)(NN(Cc1ccccc1)C(=O)c1ccccc1)OCC,,"inconclusive: 9.2 µM [cytotoxic, partial curve]"
COc1cccc(-c2nn(CCC#N)cc2C(=O)Nc2ccccc2Cl)c1,,"inconclusive: 32.6 µM [cytotoxic, single point]"
O=C(CCN1CC=C(c2ccccc2)CC1)NCc1ccccc1,,"inconclusive: 20.6 µM [cytotoxic, single point]"
Oc1ccc(/C=N/NP(=S)(c2ccccc2)c2ccccc2)cc1O,,"inconclusive: 20.6 µM [cytotoxic, partial curve, poor fit]"
O=C(COC(=O)Cc1ccccc1)Nc1cc(S(=O)(=O)N2CCOCC2)ccc1N1CCCC1,,"inconclusive: 13 µM [rising, partial curve]"
CCCC1(CCC)C(=O)NC(=Nc2ccccc2)NC1=O,inactive: -9.83%,
COc1ccc(CNCCc2ccc3c(c2)OCO3)cc1Br,inactive: 0.0226%,
CCN(CC)C(=O)c1ccc(NC(=O)c2ccc(-c3nn(C)c(=O)c4ccccc34)cc2)cc1,,"inconclusive: 6.51 µM [cytotoxic, partial curve]"
c1ccc(N2CCN(c3ccccc3)CC2)cc1,inactive: -1.92%,
CCCCn1c(=O)c(C(=O)NCc2ccccc2OC)c(O)c2ccccc21,,"inconclusive: 29.1 µM [cytotoxic, single point]"

SMILES,"activity change, negative = cytotoxicity",Potency
COc1ccc(/C=C/C=C2C(=O)NC(=S)NC2=O)cc1,,"inconclusive: 4.11 µM [cytotoxic, full curve, poor fit]"
Cc1ccccc1-n1nc(C)c2c1NC(=O)CSC2c1ccc(Cl)cc1 (centres undefined),,"inconclusive: 18.4 µM [cytotoxic, partial curve]"
CCOc1ccc(Cl)cc1CNCCc1ccc(F)cc1,inactive: -2.23%,
O=c1[nH]c(=S)n(CCC2=CCCCC2)c(O)c1C=NCCCn1ccnc1,inactive: 17.7%,
CN1CCN(Cc2cn(C)c3ccccc23)CC1CCO (centres undefined),inconclusive: -37.3%,
CCc1ccc(N2C(=O)NC(=O)/C(=C/c3cccn3CCOc3ccc(C)cc3)C2=O)cc1,inactive: -29.8%,
O=c1[nH]c2ccccc2n1C1CCN(Cc2ccc(-c3nc4ccc(F)cc4nc3-c3ccccc3)cc2)CC1,,"inconclusive: 23.1 µM [cytotoxic, single point]"
O=C(c1cc(Cl)cc(Cl)c1)N1Cc2ccccc2-n2nncc2C1,inactive: -8%,
O=C(c1cccc(Cl)c1)C1CCCN(Cc2cccc3cnccc23)C1 (centres undefined),inactive: -23.7%,
CCC(=NCCc1c[nH]c2ccccc12)c1c(O)n(C)c(=O)n(C)c1=O,,"inconclusive: 29.1 µM [cytotoxic, single point]"
O=[N+]([O-])c1ccc2c(c1)C(c1ccccc1)=NCCN2,,"inconclusive: 16.4 µM [cytotoxic, partial curve, poor fit]"
CCC1(CCC(C)C)C(=O)NC(=O)N(c2ccccc2)C1=O (centres undefined),,"inconclusive: 20.6 µM [cytotoxic, single point]"
Fc1ccc(Cn2nnnc2CN2CCC(n3nnc4cc(C(F)(F)F)ccc43)CC2)cc1,,"inconclusive: 5.17 µM [cytotoxic, partial curve]"
COc1cc(C)c(CNCCc2c[nH]c3ccccc23)cc1C,,"inconclusive: 29.1 µM [cytotoxic, single point]"
Cc1ccccc1-[n+]1c(-c2ccccc2)cc(-c2ccccc2)cc1-c1ccccc1,inactive: -11.4%,
CN(C)c1ccc(NC(=O)c2sc3nc4c(cc3c2N)N2CCC4CC2)cc1,,"inconclusive: 11.6 µM [cytotoxic, partial curve]"
CN1CCC(O)(c2ccccc2)C(C(=O)c2ccccc2)C1 (centres undefined),inactive: 22.5%,
CCOC(=O)c1c(NS(=O)(=O)c2ccccc2)n(CCCOC)c2nc3ccccc3nc12,inactive: 23.1%,
CN1CC(C(=O)c2ccc(F)cc2)C(c2c(F)cccc2Cl)C1 (centres undefined),inactive: 10.2%,
O=C1NCN(c2ccccc2)C12CCN(C(CCc1ccccc1)c1nnnn1C1CCCC1)CC2 (centres undefined),,"inconclusive: 18.4 µM [cytotoxic, partial curve, poor fit]"
CC[N+](C)(CC)CCCOC(=O)C(O)(c1ccccc1)C1CCCCC1 (centres undefined),,"inconclusive: 29.1 µM [rising, single point]"
CCOC(=O)c1cccc(C2=C(CNC(=O)c3ocnc3C)[C@H]3CC[C@@H](C2)N3Cc2ccccc2)c1,inactive: 6.4%,
COC(=O)C1=C(c2ccc3ccccc3c2)C[C@@H]2CC[C@H]1N2C(=O)N1CCCCC1,,"inconclusive: 23.1 µM [cytotoxic, single point]"
O=c1[nH]c(=S)n(CCC2=CCCCC2)c(O)c1C=NC1CCN(Cc2ccccc2)CC1,,active: 5.8 µM
